Laboratory results taken from the supplement of paper PMC10849652.
This is one part of the list.

The chains behind the UniProt entries cited, without tags or fusion partners. Where a name states a change or a piece, a line headed by the entry shows the natural chain unless it says otherwise.
UniProt Q9C0B7: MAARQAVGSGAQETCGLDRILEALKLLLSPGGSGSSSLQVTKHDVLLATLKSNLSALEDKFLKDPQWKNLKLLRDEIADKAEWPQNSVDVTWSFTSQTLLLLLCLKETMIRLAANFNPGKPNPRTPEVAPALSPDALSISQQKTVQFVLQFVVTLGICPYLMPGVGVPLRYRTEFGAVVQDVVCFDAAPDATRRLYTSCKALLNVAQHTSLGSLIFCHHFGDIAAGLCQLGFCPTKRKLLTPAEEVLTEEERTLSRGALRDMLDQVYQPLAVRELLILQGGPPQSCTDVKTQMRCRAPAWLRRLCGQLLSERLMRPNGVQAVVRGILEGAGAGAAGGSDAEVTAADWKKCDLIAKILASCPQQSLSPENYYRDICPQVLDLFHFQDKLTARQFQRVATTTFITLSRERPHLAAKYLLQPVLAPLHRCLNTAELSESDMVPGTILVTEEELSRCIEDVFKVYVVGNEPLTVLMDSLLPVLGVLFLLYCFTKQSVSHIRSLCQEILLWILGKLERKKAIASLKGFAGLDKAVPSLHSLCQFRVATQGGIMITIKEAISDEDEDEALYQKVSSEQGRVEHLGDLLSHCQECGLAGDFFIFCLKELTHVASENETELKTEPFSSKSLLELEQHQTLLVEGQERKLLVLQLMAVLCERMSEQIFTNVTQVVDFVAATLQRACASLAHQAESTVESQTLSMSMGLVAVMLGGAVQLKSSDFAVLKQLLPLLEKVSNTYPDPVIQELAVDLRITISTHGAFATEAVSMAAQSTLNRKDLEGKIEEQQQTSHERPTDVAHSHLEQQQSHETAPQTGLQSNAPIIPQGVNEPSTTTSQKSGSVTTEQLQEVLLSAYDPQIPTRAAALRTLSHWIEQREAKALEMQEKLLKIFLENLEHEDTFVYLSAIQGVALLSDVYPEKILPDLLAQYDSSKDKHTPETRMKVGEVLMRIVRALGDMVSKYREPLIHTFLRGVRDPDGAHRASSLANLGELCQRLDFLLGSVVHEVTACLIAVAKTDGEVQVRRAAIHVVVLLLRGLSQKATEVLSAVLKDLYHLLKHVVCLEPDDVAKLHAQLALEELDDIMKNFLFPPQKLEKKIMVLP
UniProt Q92797: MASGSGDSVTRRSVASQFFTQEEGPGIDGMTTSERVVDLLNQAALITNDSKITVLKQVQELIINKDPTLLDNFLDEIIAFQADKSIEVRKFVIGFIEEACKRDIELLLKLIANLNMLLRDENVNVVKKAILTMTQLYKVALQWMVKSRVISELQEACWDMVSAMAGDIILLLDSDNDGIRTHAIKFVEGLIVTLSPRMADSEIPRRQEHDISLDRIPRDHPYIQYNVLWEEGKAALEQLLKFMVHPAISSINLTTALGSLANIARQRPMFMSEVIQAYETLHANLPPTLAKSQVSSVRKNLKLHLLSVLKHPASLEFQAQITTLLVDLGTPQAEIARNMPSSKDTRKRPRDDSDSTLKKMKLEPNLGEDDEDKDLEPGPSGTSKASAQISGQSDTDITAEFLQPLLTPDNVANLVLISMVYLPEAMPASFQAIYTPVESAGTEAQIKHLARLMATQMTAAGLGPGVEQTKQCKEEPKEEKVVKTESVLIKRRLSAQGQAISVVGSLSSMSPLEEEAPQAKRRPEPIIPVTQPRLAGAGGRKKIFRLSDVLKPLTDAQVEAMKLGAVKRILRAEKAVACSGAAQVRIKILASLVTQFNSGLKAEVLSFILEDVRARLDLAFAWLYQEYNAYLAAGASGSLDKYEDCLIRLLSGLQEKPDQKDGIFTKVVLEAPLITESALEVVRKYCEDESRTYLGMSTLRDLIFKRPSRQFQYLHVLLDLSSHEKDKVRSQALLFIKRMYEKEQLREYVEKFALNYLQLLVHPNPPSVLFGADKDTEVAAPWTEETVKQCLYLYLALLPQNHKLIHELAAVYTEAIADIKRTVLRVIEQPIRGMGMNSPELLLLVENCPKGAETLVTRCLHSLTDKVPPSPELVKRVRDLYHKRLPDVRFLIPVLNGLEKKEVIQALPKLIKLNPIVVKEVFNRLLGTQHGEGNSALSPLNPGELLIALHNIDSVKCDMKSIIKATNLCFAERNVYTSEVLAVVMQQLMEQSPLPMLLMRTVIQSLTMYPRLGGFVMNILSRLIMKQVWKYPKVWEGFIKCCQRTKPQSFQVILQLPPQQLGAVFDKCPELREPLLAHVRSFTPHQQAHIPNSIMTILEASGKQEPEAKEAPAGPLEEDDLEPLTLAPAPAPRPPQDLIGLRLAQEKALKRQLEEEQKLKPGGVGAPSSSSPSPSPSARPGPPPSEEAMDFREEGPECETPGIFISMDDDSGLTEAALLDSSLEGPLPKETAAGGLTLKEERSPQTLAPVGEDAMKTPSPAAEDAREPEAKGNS
UniProt P37837: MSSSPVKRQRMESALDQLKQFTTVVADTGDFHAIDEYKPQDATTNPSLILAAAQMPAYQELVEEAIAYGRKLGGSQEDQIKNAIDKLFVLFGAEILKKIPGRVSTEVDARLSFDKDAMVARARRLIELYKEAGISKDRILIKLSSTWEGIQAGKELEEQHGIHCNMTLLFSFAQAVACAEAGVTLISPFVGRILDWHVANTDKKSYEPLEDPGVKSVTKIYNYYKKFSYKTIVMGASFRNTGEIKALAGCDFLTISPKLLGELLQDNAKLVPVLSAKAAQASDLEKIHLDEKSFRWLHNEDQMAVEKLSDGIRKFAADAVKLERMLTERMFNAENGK
UniProt O75528: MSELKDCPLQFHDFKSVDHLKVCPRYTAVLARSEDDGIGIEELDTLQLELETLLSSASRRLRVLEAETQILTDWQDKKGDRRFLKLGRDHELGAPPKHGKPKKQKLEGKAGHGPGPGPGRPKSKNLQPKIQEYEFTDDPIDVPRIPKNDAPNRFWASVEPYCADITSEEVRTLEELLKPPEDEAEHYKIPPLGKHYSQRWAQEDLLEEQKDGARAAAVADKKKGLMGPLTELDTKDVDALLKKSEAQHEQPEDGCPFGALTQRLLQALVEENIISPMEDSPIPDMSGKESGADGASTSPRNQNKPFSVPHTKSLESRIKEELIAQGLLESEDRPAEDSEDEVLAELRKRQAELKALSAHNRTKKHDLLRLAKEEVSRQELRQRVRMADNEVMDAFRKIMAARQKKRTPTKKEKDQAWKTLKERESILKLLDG
UniProt O14662: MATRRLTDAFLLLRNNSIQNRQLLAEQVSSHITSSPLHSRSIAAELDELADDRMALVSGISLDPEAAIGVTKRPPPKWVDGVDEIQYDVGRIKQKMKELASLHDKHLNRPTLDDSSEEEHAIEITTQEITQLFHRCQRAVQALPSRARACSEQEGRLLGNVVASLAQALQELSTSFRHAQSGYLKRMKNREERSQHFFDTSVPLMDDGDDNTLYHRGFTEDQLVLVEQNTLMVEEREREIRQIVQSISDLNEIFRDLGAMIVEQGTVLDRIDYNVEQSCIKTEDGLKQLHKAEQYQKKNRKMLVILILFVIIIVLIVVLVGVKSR
UniProt Q6ICL3: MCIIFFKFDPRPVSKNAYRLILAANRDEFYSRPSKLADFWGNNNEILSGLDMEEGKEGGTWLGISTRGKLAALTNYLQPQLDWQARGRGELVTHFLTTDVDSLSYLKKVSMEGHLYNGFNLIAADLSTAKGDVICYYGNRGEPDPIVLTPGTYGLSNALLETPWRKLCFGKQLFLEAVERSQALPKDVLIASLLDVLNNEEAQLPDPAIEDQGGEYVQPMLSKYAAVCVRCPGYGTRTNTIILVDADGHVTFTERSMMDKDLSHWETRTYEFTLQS
UniProt O15533, whole entry, looked up: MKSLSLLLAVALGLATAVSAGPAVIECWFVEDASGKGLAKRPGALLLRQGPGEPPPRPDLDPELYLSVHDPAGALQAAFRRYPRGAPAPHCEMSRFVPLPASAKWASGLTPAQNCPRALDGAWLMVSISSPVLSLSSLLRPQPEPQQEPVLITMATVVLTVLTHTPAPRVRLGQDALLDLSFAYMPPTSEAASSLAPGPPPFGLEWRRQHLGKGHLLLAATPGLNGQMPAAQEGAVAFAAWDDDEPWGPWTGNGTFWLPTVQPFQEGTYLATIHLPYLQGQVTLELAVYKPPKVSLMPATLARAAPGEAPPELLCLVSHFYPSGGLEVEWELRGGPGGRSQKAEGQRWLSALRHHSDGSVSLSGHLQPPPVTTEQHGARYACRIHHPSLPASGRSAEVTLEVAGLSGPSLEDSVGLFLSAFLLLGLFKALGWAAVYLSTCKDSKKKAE
UniProt Q96C24: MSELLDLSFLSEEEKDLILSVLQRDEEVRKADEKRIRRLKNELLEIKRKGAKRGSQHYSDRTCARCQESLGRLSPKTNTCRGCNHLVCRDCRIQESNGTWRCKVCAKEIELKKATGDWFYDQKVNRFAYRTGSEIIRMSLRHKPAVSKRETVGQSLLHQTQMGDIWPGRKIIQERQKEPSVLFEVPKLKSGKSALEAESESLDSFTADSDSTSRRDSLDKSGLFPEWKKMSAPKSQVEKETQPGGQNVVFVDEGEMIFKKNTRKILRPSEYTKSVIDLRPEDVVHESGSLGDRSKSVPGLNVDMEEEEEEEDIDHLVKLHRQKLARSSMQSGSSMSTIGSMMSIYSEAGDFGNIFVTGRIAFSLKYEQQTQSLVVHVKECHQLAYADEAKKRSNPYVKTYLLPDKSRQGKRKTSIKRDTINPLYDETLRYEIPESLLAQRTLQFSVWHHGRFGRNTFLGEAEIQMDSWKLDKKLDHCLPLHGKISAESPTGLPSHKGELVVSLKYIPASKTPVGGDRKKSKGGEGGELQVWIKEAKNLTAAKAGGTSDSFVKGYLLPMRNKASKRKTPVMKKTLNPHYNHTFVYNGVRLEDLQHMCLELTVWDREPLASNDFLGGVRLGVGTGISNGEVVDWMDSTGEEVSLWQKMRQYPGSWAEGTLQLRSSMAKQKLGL
UniProt P16949: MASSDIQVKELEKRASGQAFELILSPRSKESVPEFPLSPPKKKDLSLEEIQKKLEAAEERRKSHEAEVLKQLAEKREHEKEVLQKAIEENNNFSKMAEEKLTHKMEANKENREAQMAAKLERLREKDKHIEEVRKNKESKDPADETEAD
UniProt Q8TCJ2: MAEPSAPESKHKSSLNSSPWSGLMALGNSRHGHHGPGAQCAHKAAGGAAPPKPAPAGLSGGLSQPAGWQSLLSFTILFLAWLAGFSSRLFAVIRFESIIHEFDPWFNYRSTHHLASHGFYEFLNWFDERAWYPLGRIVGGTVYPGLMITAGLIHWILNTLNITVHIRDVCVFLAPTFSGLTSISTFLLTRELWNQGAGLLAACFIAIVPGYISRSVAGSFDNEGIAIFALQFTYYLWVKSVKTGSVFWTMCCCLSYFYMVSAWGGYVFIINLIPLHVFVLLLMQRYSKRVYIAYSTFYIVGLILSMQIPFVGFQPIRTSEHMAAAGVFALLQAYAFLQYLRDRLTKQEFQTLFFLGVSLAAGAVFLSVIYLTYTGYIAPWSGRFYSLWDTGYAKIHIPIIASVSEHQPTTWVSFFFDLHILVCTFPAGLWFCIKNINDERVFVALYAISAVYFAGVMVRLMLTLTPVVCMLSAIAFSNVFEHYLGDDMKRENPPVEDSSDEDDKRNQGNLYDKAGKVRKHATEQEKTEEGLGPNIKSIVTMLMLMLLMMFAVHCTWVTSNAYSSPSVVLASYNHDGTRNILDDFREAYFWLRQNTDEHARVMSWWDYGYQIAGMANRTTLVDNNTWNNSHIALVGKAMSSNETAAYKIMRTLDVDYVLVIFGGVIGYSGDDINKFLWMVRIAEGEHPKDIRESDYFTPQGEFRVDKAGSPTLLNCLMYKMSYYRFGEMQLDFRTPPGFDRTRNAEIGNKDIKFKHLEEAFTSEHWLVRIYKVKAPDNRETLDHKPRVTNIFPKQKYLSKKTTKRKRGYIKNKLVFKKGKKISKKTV
UniProt Q7Z422: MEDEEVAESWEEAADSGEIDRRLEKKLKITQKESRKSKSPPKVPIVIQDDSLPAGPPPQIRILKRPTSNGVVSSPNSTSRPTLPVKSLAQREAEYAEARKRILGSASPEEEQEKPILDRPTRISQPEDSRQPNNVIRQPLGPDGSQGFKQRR
UniProt Q9UH65: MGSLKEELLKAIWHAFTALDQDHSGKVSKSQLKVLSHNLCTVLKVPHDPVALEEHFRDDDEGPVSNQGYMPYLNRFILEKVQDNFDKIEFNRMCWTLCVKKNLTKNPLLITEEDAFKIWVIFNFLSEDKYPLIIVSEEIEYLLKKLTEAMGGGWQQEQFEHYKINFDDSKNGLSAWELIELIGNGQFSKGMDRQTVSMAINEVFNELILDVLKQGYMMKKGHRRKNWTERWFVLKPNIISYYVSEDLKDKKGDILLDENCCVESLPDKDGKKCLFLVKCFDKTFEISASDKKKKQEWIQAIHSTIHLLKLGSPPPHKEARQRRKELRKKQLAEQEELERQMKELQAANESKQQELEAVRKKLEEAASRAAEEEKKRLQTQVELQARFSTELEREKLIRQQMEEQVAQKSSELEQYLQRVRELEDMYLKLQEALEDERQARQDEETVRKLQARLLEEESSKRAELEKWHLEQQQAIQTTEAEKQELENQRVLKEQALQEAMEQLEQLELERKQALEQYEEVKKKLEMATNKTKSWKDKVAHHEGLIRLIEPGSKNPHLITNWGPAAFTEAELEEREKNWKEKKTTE

What was measured:
Assay in all cases: log2 fold change, soluble protein after heating vs DMSO (PISA); higher = thermal stabilisation; K562 cells, 10 uM, 30 min; active = over 0.2 and 3.5 SD of the protein, either way, in both replicates (recomputed)
erlotinib = compound: C#Cc1cccc(Nc2ncnc3cc(OCCOC)c(OCCOC)cc23)c1 [erlotinib]
Outline: (§1)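 Thermal stability values are relative to control samples and come from duplicates. They are expressed as log2 fold changes. For measurement, K562 cells (2×10^6 cells/mL) received 10 μM compound for 30 min, and aliquots were heated for 3 min over 48°C-58°C, pooled, and extracted at 4°C in PBS with 0.5% NP-40. Soluble protein, the supernatant after 21,000xg for 90 min, was quantified by TMTpro 16plex LC-MS/MS with equalised channel sums.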

[1] = compound: C/C(=N\NC(=O)C1=CC(=CC=C1)S(=O)(=O)N2CCOCC2)/C3=C(C=CC(=C3)Cl)O
Outline: as §1

[2] = compound: C1=CC(=C(C=C1Cl)C2=NC3=NC=CN=C3C(=N2)NC4=CC=NC=C4)F
Outline: as §1

[3] = compound: C1=CC(=CC=C1C2=NC3=C(N2)C=C(C=C3)C(=O)N)OC4=CC=C(C=C4)Cl
Outline: as §1

[4] = compound: C1=CC2=C(C=CC(=C2)/C=C\3/C(=O)NC(=NCC4=CC=CS4)S3)N=C1
Outline: as §1

[5] = compound: C1=CC2=NC=CN=C2C=C1/C=C/3\C(=O)NC(=O)S3
Outline: as §1

[6] = compound: C1=CC=C(C=C1)C2=NC(=C(N2)C3=CC=NC=C3)C4=CC(=C(C=C4)Cl)O
Outline: as §1

[7] = compound: C1=CC=C2C(=C1)C3=NNC4=CC=CC(=C43)C2=O
Outline: as §1

[8] = compound: C1CCN(C1)C(=O)NC2=CC=CC(=C2)NC3=NC=C(C(=N3)NCCC4=CN=CN4)Br
Outline: as §1

[9] = compound: C1CN(CCC1(CC2=CC=C(C=C2)Cl)N)C3=NC=NC4=C3C=CN4
Outline: as §1

Measured: log2 fold change

STX5 (UniProt Q13190)
inactive: erlotinib -0.003 | [1] 0.089 | [2] -0.068 | [3] 0.002 | [4] 0.057 | [5] -0.025 | [6] 0.042 | [7] 0.039 | [8] -0.087 | [9] -0.025

TANGO6 (UniProt Q9C0B7)
inactive: erlotinib 0.208 | [1] 0.032 | [2] -0.003 | [3] -0.026 | [4] -0.001 | [5] 0.057 | [6] 0.025 | [7] -0.056 | [8] -0.026 | [9] 0

SYMPK (UniProt Q92797)
inactive: erlotinib -0.005 | [1] 0.179 | [2] 0.005 | [3] -0.114 | [4] 0.189 | [5] 0.033 | [6] 0.093 | [7] -0.065 | [8] -0.101 | [9] 0.04

SYNJ2BP-COX16, A0A087WYV9
inactive: erlotinib -0.014 | [1] -0.019 | [2] -0.043 | [3] 0.006 | [4] 0.026 | [5] 0.051 | [6] 0.016 | [7] -0.006 | [8] -0.001 | [9] 0.046

SUPT5H (UniProt O00267)
inactive: erlotinib 0.05 | [1] 0.084 | [2] 0.065 | [3] 0.011 | [4] 0.017 | [5] 0.021 | [6] 0.02 | [7] 0.006 | [8] -0.017 | [9] 0.011

TALDO1 (UniProt P37837)
inactive: erlotinib -0.009 | [1] 0.021 | [2] 0.063 | [3] 0.026 | [4] -0.024 | [5] -0.018 | [6] -0.004 | [7] 0.074 | [8] 0.01 | [9] 0.017

SYNJ1 (UniProt O43426)
inactive: erlotinib 0.06 | [1] 0.079 | [2] -0.04 | [3] -0.022 | [4] 0.002 | [5] -0.008 | [6] 0.11 | [7] -0.09 | [8] 0.029 | [9] 0.025

TADA3 (UniProt O75528)
inactive: erlotinib -0.015 | [1] 0.035 | [2] -0.019 | [3] 0.016 | [4] 0.015 | [5] 0.034 | [6] -0.017 | [7] -0.003 | [8] 0.006 | [9] 0.01

STX16 isoform 2 (UniProt O14662)
inactive: erlotinib -0.022 | [1] 0.028 | [2] -0.069 | [3] 0.056 | [4] -0.006 | [5] -0.053 | [6] -0.024 | [7] 0.006 | [8] -0.031 | [9] 0.028

TAMM41 isoform 3 (UniProt Q96BW9)
inactive: erlotinib 0.047 | [1] 0.03 | [2] 0.058 | [3] -0.007 | [4] 0.061 | [5] 0.009 | [6] 0.045 | [7] 0.007 | [8] -0.007 | [9] 0.056

SUCO (UniProt Q9UBS9)
inactive: erlotinib 0.088 | [1] -0.143 | [2] -0.089 | [3] -0.027 | [4] 0.186 | [6] -0.017 | [7] 0.068 | [8] -0.101 | [9] -0.024

TAOK1 (UniProt Q7L7X3)
inactive: erlotinib 0.006 | [1] 0.045 | [2] -0.027 | [3] 0.09 | [4] -0.033 | [5] 0.009 | [6] -0.009 | [7] -0.007 | [8] -0.005 | [9] -0.01

TANGO2 isoform 4 (UniProt Q6ICL3)
inactive: erlotinib 0.021 | [1] 0.099 | [2] -0.031 | [3] 0.029 | [4] 0.114 | [5] 0.017 | [6] -0.015 | [7] -0.068 | [8] -0.025 | [9] 0.025

SULT1A3 isoform 3 (UniProt P0DMM9)
inactive: erlotinib 0.045 | [1] 0.039 | [2] -0.086 | [3] 0.282 | [4] 0.198 | [5] 0.115 | [6] 0.008 | [7] 0.296 | [8] -0.024 | [9] 0.03

TAPBP isoform 3 (UniProt O15533)
inactive: erlotinib -0.042 | [1] -0.073 | [2] 0.083 | [3] 0.054 | [4] -0.131 | [5] 0.032 | [6] 0.307 | [7] 0.104 | [8] -0.054 | [9] 0.138

Copied from the entries so far (eight entries):
TALDO1 (UniProt P37837)
inactive: erlotinib -0.009 | [1] 0.021 | [2] 0.063 | [3] 0.026 | [4] -0.024 | [5] -0.018 | [6] -0.004 | [7] 0.074 | [8] 0.01 | [9] 0.017

SYNJ1 (UniProt O43426)
inactive: erlotinib 0.06 | [1] 0.079 | [2] -0.04 | [3] -0.022 | [4] 0.002 | [5] -0.008 | [6] 0.11 | [7] -0.09 | [8] 0.029 | [9] 0.025

TADA3 (UniProt O75528)
inactive: erlotinib -0.015 | [1] 0.035 | [2] -0.019 | [3] 0.016 | [4] 0.015 | [5] 0.034 | [6] -0.017 | [7] -0.003 | [8] 0.006 | [9] 0.01

STX16 isoform 2 (UniProt O14662)
inactive: erlotinib -0.022 | [1] 0.028 | [2] -0.069 | [3] 0.056 | [4] -0.006 | [5] -0.053 | [6] -0.024 | [7] 0.006 | [8] -0.031 | [9] 0.028

TAMM41 isoform 3 (UniProt Q96BW9)
inactive: erlotinib 0.047 | [1] 0.03 | [2] 0.058 | [3] -0.007 | [4] 0.061 | [5] 0.009 | [6] 0.045 | [7] 0.007 | [8] -0.007 | [9] 0.056

SUCO (UniProt Q9UBS9)
inactive: erlotinib 0.088 | [1] -0.143 | [2] -0.089 | [3] -0.027 | [4] 0.186 | [6] -0.017 | [7] 0.068 | [8] -0.101 | [9] -0.024

TAOK1 (UniProt Q7L7X3)
inactive: erlotinib 0.006 | [1] 0.045 | [2] -0.027 | [3] 0.09 | [4] -0.033 | [5] 0.009 | [6] -0.009 | [7] -0.007 | [8] -0.005 | [9] -0.01

TANGO2 isoform 4 (UniProt Q6ICL3)
inactive: erlotinib 0.021 | [1] 0.099 | [2] -0.031 | [3] 0.029 | [4] 0.114 | [5] 0.017 | [6] -0.015 | [7] -0.068 | [8] -0.025 | [9] 0.025

Next part:

SUMF1 isoform 3 (UniProt Q8NBK3)
inactive: erlotinib -0.058 | [1] 0.232 | [2] -0.018 | [3] 0.079 | [4] -0.084 | [6] 0.023 | [7] 0.081 | [8] 0.098 | [9] -0.062

SYTL4 (UniProt Q96C24)
inactive: erlotinib -0.016 | [1] -0.09 | [2] 0 | [3] 0.051 | [4] 0.263 | [5] 0.004 | [7] 0.039 | [8] -0.226 | [9] -0.02

SYK (UniProt P43405)
inactive: erlotinib 0.06 | [1] 0.144 | [2] -0.019 | [3] 0.038 | [4] 0.031 | [5] -0.095 | [6] 0.131 | [8] -0.042 | [9] 0.074

SUN1 isoform 9 (UniProt O94901)
active: [2] -0.346
inactive: erlotinib 0.055 | [1] 0.037 | [3] 0.032 | [4] 0.066 | [6] -0.052 | [7] 0.066 | [8] 0.057 | [9] 0.094

TBC1D12 (UniProt O60347)
inactive: erlotinib 0.01 | [1] 0.158 | [2] -0.045 | [3] -0.09 | [4] 0.024 | [7] -0.056 | [8] 0.064 | [9] -0.063

STMN1 (UniProt P16949)
inactive: erlotinib 0.011 | [1] -0.009 | [2] 0.015 | [3] 0.019 | [4] -0.029 | [5] 0.004 | [6] -0.014 | [7] 0.058 | [8] 0.06 | [9] 0.073

TARDBP (UniProt Q13148)
inactive: erlotinib 0.224 | [1] -0.03 | [2] -0.104 | [3] 0.153 | [4] -0.083 | [5] 0.098 | [6] 0.065 | [7] 0.009 | [8] -0.009 | [9] -0.122

SURF1 (UniProt Q15526)
inactive: erlotinib 0.021 | [1] -0.036 | [2] 0.051 | [3] -0.026 | [4] -0.045 | [5] 0.055 | [6] 0.056 | [7] 0.017 | [8] -0.141 | [9] 0

TARBP1 (UniProt Q13395)
inactive: erlotinib 0.015 | [1] 0.062 | [2] 0.023 | [3] 0.027 | [4] -0.091 | [5] 0.065 | [6] -0.022 | [7] 0.012 | [8] -0.085 | [9] 0.019

TATDN2 (UniProt Q93075)
inactive: erlotinib 0.071 | [1] -0.062 | [2] -0.016 | [3] -0.013 | [4] 0.043 | [5] -0.052 | [7] 0.003 | [8] -0.121 | [9] 0.06

SWI5 (UniProt Q1ZZU3)
inactive: erlotinib -0.025 | [1] 0.056 | [2] 0.034 | [3] 0.027 | [4] -0.103 | [5] 0.023 | [7] -0.15

STT3B (UniProt Q8TCJ2)
inactive: erlotinib -0.037 | [1] -0.053 | [2] -0.031 | [3] 0.024 | [4] -0.002 | [5] 0.06 | [6] 0.008 | [7] -0.028 | [8] 0.015 | [9] -0.023

SZRD1 (UniProt Q7Z422)
inactive: erlotinib 0.008 | [1] -0.017 | [2] 0.008 | [3] 0.051 | [4] -0.024 | [5] -0.008 | [6] 0.029 | [7] -0.034 | [8] 0.026 | [9] -0.008

STXBP5 (UniProt Q5T5C0)
inactive: erlotinib 0.028 | [1] 0.039 | [2] 0.097 | [3] 0.018 | [4] 0.094 | [5] 0.026 | [6] 0.036 | [7] -0.015 | [8] -0.014 | [9] 0.011

SURF6 (UniProt O75683)
inactive: erlotinib 0.09 | [1] -0.309 | [2] -0.561 | [3] -0.153 | [4] -0.017 | [5] 0.003 | [6] -0.138 | [7] -0.118 | [8] -0.044 | [9] -0.169

SWAP70 (UniProt Q9UH65)
inactive: erlotinib 0.022 | [1] 0.083 | [2] 0.013 | [3] 0.011 | [4] 0.007 | [5] 0.066 | [6] 0 | [7] -0.024 | [8] -0.024 | [9] -0.007
